Record: PubChem BioAssay AID1508597 (Cure First, 2020)
Shown is an unselected part of about 2,100 deposited reagents. 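Calls flag viability under 80% in either arm, not effects specific to rucaparib; the reference for percent is not stated.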 Not stated in the record: the 100% reference.

Test: 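Survival screen with siRNA in ovarian cancer cells derived from patients, with or without rucaparib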 (primary screen)
System: human ovarian carcinoma lines grown from tumours: OCI-P5x (papillary serous) and OCI-C5x (clear cell)
Reagent: siRNA pool against human genes, 1.25 pmol siRNA per well
Time to read-out: 72 h or 96 h, depending on the cell culture
Treatment: rucaparib 20 µM (about IC30) or vehicle, present until read-out
Measured: 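ATP luminescence measured at 72 or 96 h according to the culture, then normalised and expressed as percent viability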
Direction: viability, normalised: higher = more viable cells remaining
Call rule: 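Active when normalised viability falls below 80 percent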
Calls: active = viability under 80%; inactive = viability 80% or more

With FOXC1 (GeneID 2296), rucaparib or vehicle Rucaparib, cell line OCI-C5x (clear cell), technical replicate 1, what was measured?
viability, normalised (%): 54.4; call: active

How did the screen score FOXC1 (GeneID 2296), rucaparib or vehicle Rucaparib, cell line OCI-C5x (clear cell), technical replicate 2?
viability, normalised (%): 44; call: active

With FOXC1 (GeneID 2296), rucaparib or vehicle Rucaparib, cell line OCI-C5x (clear cell), technical replicate 3, what does the deposit list?
viability, normalised (%): 51.4; call: active

What did the screen give for FOXC1 (GeneID 2296), rucaparib or vehicle Rucaparib, cell line OCI-P5x (serous), technical replicate 1?
viability, normalised (%): 74.1; call: active

For FOXC1 (GeneID 2296), rucaparib or vehicle Rucaparib, cell line OCI-P5x (serous), technical replicate 2, what was measured?
viability, normalised (%): 72.9; call: active

With FOXC1 (GeneID 2296), rucaparib or vehicle Rucaparib, cell line OCI-P5x (serous), technical replicate 3, how do the results read?
viability, normalised (%): 72.2; call: active

For FOXC1 (GeneID 2296), rucaparib or vehicle Vehicle, cell line OCI-C5x (clear cell), technical replicate 1, what was measured?
viability, normalised (%): 45.3; call: active

What is on record for FOXC1 (GeneID 2296), rucaparib or vehicle Vehicle, cell line OCI-C5x (clear cell), technical replicate 2?
viability, normalised (%): 42.3; call: active

With FOXC1 (GeneID 2296), rucaparib or vehicle Vehicle, cell line OCI-C5x (clear cell), technical replicate 3, how do the results read?
viability, normalised (%): 48.9; call: active

For FOXC1 (GeneID 2296), rucaparib or vehicle Vehicle, cell line OCI-P5x (serous), technical replicate 1, how do the results read?
viability, normalised (%): 72.4; call: active

With FOXC1 (GeneID 2296), rucaparib or vehicle Vehicle, cell line OCI-P5x (serous), technical replicate 2, what was measured?
viability, normalised (%): 74.5; call: active

For FOXC1 (GeneID 2296), rucaparib or vehicle Vehicle, cell line OCI-P5x (serous), technical replicate 3, what was measured?
viability, normalised (%): 77; call: active

A few values from above.
FOXC1 (GeneID 2296), rucaparib or vehicle Vehicle, cell line OCI-P5x (serous), technical replicate 1, call: active
FOXC1 (GeneID 2296), rucaparib or vehicle Vehicle, cell line OCI-P5x (serous), technical replicate 2, call → active
FOXC1 (GeneID 2296), rucaparib or vehicle Rucaparib, cell line OCI-C5x (clear cell), technical replicate 1, call → active

Additional records:
What is on record for DHX15 (GeneID 1665), rucaparib or vehicle Rucaparib, cell line OCI-C5x (clear cell), technical replicate 1?
viability, normalised (%): 66.1; call: active

With DHX15 (GeneID 1665), rucaparib or vehicle Rucaparib, cell line OCI-C5x (clear cell), technical replicate 2, what was measured?
viability, normalised (%): 46.5; call: active

With DHX15 (GeneID 1665), rucaparib or vehicle Rucaparib, cell line OCI-C5x (clear cell), technical replicate 3, how do the results read?
viability, normalised (%): 53.1; call: active

For DHX15 (GeneID 1665), rucaparib or vehicle Rucaparib, cell line OCI-P5x (serous), technical replicate 1, how do the results read?
viability, normalised (%): 62.7; call: active

With DHX15 (GeneID 1665), rucaparib or vehicle Rucaparib, cell line OCI-P5x (serous), technical replicate 2, what does the deposit list?
viability, normalised (%): 64.7; call: active

With DHX15 (GeneID 1665), rucaparib or vehicle Rucaparib, cell line OCI-P5x (serous), technical replicate 3, what was measured?
viability, normalised (%): 65.9; call: active

For DHX15 (GeneID 1665), rucaparib or vehicle Vehicle, cell line OCI-C5x (clear cell), technical replicate 1, what was measured?
viability, normalised (%): 46.8; call: active

Which result is listed for DHX15 (GeneID 1665), rucaparib or vehicle Vehicle, cell line OCI-C5x (clear cell), technical replicate 2?
viability, normalised (%): 48.8; call: active

How did the screen score DHX15 (GeneID 1665), rucaparib or vehicle Vehicle, cell line OCI-C5x (clear cell), technical replicate 3?
viability, normalised (%): 59.6; call: active

With DHX15 (GeneID 1665), rucaparib or vehicle Vehicle, cell line OCI-P5x (serous), technical replicate 1, what does the deposit list?
viability, normalised (%): 59.2; call: active

For DHX15 (GeneID 1665), rucaparib or vehicle Vehicle, cell line OCI-P5x (serous), technical replicate 2, what does the deposit list?
viability, normalised (%): 53.3; call: active

Which result is listed for DHX15 (GeneID 1665), rucaparib or vehicle Vehicle, cell line OCI-P5x (serous), technical replicate 3?
viability, normalised (%): 60.8; call: active
